No constants are given. Whether binding was seen depends on the method and setting. In cells and extracts the contact can be indirect. For some assays here: Binding can be weak; no strength is given. Tags and fused reporters may be left off the sequences shown.
Experiments:
[1] = target: voltage-dependent anion channel (VDAC); experiment: GST pull-down with heart mitochondria protein extracts
[2] = target: adenine nucleotide translocase (ANT) (mouse); experiment: GST pull-down with heart mitochondria protein extracts, Western blot

B1: GST-ApoO fusion protein (protein, not shown: a dimerising Fc or GST)
chain: APKKDSPPKNSVKVDELSLYSVPEGQSKYVEEARSQLEESISQLRHYCEPYTTWCQETYSQTKPKMQSLVQWGLDSYDYLQNAPPGFFPRLGVIGFAGLIGLLLARGSKIKKLVYPPGFMGLAASLYYPQQAIVFAQVSGERLYDWGLRGYIVIEDLWKENFQKPGNVKNSPGTK
binding [1]: no binding
binding [2]: binds

Source: US20190209648A1
